# Results as given in patent US7442839B2, “Phenethanolamine derivative for the treatment of respiratory diseases” (Glaxo Group Limited, priority 2002, dated 2008).
# Some of these results come from one statement about several compounds together.
# Target: T1, human beta-2 receptor (Homo sapiens, UniProt P07550)
# T1 construct: expressed in transfected cells; host or cells: Chinese hamster ovary cells (whole cells or membranes derived from them)
# Assay: Chinese hamster ovary cells co-expressing the human receptor with a reporter gene, cAMP measurement in whole cells or membranes (Method 2)
# Type: cell-based
# Conditions: CHO cells or membranes, agonist potency
row,Molecule,pEC50 at the human beta-2 receptor
1,"CC(=O)O.O=C1CCc2c([C@@H](O)CNCCCCCCOCCCCc3cccc(S(=O)(=O)C4CCCC4)c3)ccc(O)c2N1 [Example 14, 5{(1R)-2-[(6-{4-[3-(Cyclopentylsulfonyl)phenyl]butoxy}hexyl)amino]-1-hydroxyethyl}-8-hydroxy-3,4-dihydroquinolin-2(1H)-one acetate]",> 6
2,6-{2-[(6-{4-[3-(Cyclopentylsulfonyl)phenyl]butoxy}hexyl)amino]-1-hydroxyethyl}-2-(hydroxymethyl)pyridin-3-ol acetate [Example 13],> 6
3,"CS(=O)(=O)Nc1cc([C@@H](O)CNCCCCCCOCCCCc2cccc(S(=O)(=O)C3CCCC3)c2)ccc1O [Example 11, N-[5-((1R)-2-{[6-({4-[3-(Cyclopentylsulfonyl)phenyl]butyl}oxy)hexyl]amino}-1-hydroxyethyl)-2-hydroxyphenyl]methanesulfonamide]",> 6
4,"[O-][S+](c1cccc(CCCCOCCCCCCNCC(O)c2ccc(O)c(CO)c2)c1)C1CCCC1 (single isomer, unassigned; isomer 1) [Example 2]",> 6
5,"O=CNc1cc([C@@H](O)CNCCCCCCOCCCCc2cccc(S(=O)(=O)C3CCCC3)c2)ccc1O [Example 15, 5-(1R)-2-[(6-{4-[3-(Cyclopentylsulfonyl)phenyl]butoxy}hexyl)amino]-1-hydroxyethyl}-2-hydroxyphenylformamide acetate]",> 6
6,"O=S(=O)(c1cccc(CCCCOCCCCCCNC[C@H](O)c2ccc(O)c(F)c2)c1)C1CCCC1 [Example 12, 4-((1R)-2-{[6-({4-[3-(Cyclopentylsulfonyl)phenyl]butyl}oxy)hexyl]amino}-1-hydroxyethyl)-2-fluorophenol]",> 6
